# Measurements published in patent publication US20220193068A1, “A GRK2 PROTEIN INHIBITOR COMPOUND AND A PHARMACEUTICAL COMPOSITION COMPRISING THE SAME” (CONSEJO NACIONAL DE INVESTIGACIONES CIENTÍFICAS Y TÉCNICAS …, priority 2019, published 2022).
# For at least one compound, name, drawing or mass did not settle the structure.
# Columns and labels:
# Format in all cases: cell-based
# RGS domain of GRK2 = biological target: T1, RGS domain of GRK2 (Homo sapiens, UniProt P25098); assay: Ca2+ response to histamine (rH1) in A549 cells, Fura2AM
# T1 construct: epithelial lung cell-line, A549, which endogenously express rH1 and GRK2; endogenous in cells; host or cells: A549
# T1 sequence (P25098 1-689): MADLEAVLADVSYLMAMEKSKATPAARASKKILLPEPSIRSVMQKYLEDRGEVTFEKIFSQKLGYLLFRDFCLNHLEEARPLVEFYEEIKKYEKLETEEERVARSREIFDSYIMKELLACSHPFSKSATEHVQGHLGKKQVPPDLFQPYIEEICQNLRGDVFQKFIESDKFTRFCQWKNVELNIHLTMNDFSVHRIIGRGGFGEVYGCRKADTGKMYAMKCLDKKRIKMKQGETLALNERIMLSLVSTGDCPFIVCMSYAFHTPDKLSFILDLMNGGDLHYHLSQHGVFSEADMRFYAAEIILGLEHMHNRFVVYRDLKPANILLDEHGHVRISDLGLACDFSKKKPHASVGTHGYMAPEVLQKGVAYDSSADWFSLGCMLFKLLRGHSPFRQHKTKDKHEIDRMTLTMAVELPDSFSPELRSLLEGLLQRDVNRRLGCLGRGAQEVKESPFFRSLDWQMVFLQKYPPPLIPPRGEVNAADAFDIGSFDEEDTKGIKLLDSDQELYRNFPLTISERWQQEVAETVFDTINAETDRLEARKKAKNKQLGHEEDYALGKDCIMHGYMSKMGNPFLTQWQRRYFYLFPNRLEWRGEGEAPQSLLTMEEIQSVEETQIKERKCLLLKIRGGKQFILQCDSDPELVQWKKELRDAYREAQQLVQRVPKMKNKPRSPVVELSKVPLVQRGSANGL
# [1] = tested on: GRK2K220R/R106A (mutated RGS domain); assay: Selectivity control: cAMP response of rH2 in HEK293 clones overexpressing rH2 and GRK2K220R/R106A; settings: 10 μM amthamine, no significant differences
# Method: In order to assess specificity of the effect of compounds over RGS domain of GRK2, assays were carried out in a second system that overexpresses rH2 and GRK2K220R/R106A, a GRK2 double mutant negative dominant construct that lacks both kinase activity and desensitization action through RGS domain. […] The R106A mutation that inactivates the RGS domain is redundant to the effect of an inhibitory potential, thus constituting the selectivity control of the model and allowing to determine if the enhancement in the receiver response occurred as a result of an inhibition of the RGS domain, or if it was the result of a non-specific action of the compound on an unwanted target. Those compounds that also raise cAMP levels in this control system are considered to be of non-specific action.
# Since the latter mutation is redundant to the effect of a potential inhibitor of RGS domain of GRK2, this system allows us to discern whether the enhancement in the rH2 response occurred as a result of an RGS domain inhibition, or whether it resulted from a non-specific action of the compound on an unwanted target.
# [2] = biological target: T2, RGS domain of GRK2 (GRK2-K220R variant) (Bos taurus, UniProt P21146, K220R); assay: cAMP response of rH2 to amthamine in HEK293 clones overexpressing rH2 and GRK2-K220R; settings: 40 min pretreatment, C2-C5 at 10 μM or 100 μM, L96B at 100 nM or 1 μM, 10 μM amthamine, *p<0.05
# T2 construct: expressed in transfected cells
# T2 sequence (P21146 1-689 K220R): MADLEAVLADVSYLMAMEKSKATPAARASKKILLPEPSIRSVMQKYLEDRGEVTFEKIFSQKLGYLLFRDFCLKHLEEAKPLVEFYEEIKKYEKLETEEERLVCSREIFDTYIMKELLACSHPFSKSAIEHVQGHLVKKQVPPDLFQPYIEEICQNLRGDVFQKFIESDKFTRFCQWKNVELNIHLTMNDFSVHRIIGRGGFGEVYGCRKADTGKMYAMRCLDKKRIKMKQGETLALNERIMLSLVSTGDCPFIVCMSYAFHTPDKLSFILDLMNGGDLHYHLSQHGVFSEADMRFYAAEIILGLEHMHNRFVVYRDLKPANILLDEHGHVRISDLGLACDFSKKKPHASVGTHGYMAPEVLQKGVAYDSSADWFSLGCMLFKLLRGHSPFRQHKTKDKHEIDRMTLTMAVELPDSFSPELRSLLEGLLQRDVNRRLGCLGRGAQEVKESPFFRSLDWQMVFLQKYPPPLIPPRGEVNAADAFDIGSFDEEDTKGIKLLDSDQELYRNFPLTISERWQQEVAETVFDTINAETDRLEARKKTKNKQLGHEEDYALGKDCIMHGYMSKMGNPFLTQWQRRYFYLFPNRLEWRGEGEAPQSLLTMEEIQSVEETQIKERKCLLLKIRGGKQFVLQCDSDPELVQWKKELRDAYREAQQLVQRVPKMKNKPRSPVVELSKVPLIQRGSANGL
# Excerpt: In order to assess the effect of inhibitors of the RGS domain of GRK2, a cell model derived from HEK293 transfected cells was obtained. Such cells overexpress the histamine H2 receptor (rH2), a G-protein coupled receptor (GPCR) of the Gs type that, when activated, promotes cAMP synthesis and which is inactivated by regulatory domain-mediated desensitization of G-protein stimulation (RGS) of GRK2. The clone obtained not only overexpresses rH2 but also overexpresses a negative dominant mutant of GRK2, the GRK2-K220R variant, which cannot phosphorylate GPCRs but can inactivate them through its RGS domain. […]
# Clones derived from HEK293 cells were obtained by stable and sequential transfection with pcDNA3.1Zeo(+)-HARH2 and pcDNA3-GRK2K22OR plasmids using K2 Transfection System (BIONTEX) reactive, following manufacturer's instructions and using, for a 35 mm diameter plate, a mixture A of 2.7 μg of total DNA and 150 μl of DMEM base and a mixture B of 6 μl of K2 transfection reactive and 150 μl of base DMEM. […] According to this protocol, cells were counted and plated performing serial dilutions, so as to obtain wells with con 1000, 100, 10 and 1 cell. […] After three weeks, several antibiotic-resistant clones were selected and afterwards plasmid expression was analyzed by Western blot. […]
# cAMP in samples was quantified by adapting the linking protein-binding technique according to Davio et al, 1995.
# [3] = biological target: T3, GRK2 (desensitization of β-adrenergic receptors) (Rattus norvegicus, UniProt P26817); assay: cAMP response of neonatal rat cardiomyocytes stimulated with isoproterenol; settings: L96B 100 nM, 40 min pretreatment, 1 μM isoproterenol, **p<0.005
# T3 construct: Cardiomyocytes were obtained from the ventricle of neonatal Sprague-Dawley rats by proteolytic digestion; endogenous in cells; host or cells: primary cardiomyocytes from the ventricle of neonatal Sprague-Dawley rats
# T3 sequence (P26817 1-689): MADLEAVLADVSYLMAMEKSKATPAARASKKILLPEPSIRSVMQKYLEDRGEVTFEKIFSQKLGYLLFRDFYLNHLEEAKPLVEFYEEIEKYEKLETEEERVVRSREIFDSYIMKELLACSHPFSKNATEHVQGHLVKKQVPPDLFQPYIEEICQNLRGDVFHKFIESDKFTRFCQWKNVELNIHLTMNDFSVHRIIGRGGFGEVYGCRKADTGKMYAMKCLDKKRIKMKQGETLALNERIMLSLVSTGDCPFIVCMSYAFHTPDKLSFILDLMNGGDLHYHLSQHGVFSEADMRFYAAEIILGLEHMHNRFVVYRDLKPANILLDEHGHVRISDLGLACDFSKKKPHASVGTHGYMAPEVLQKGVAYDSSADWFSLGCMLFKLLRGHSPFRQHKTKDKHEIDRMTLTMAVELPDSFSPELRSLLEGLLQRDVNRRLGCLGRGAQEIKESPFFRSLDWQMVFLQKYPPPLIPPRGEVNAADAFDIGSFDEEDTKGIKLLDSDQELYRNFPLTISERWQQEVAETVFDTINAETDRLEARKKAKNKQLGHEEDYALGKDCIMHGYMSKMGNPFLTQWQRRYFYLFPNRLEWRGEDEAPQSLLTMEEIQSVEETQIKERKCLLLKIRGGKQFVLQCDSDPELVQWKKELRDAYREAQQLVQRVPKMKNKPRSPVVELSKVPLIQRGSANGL
smiles,measurement,setting,value
"COC(=O)c1ccc(NC(=O)c2ccc3ccccc3c2)cc1 [L96B, methyl 4-(naphthalene-2-amido)benzoate]",desensitization of Ca2+ response mediated by GRK2,RGS domain of GRK2; A549 cells pretreated with 33 μM histamine,inhibits desensitization
same,Ca2+ release in response to rH1 stimuli,"RGS domain of GRK2; A549 cells, L96B 100 nM, last 40 min, 100 μM histamine",higher
same,effect over rH2 capacity of response (cAMP) with GRK2 mutated in the RGS domain,[1],lack of effect
same,effect on H2 receptor capacity of response (cAMP),[2],enhancing effect
same,effect over the response capacity of cAMP of β-adrenergic receptors to isoproterenol,[3],enhancing effect
